Among all 2,200 compounds or so, about 15 (0.7%) were called active.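 Rule for the calls: active = fitted half-maximal concentration for loss of luminescence signal no more than a set limit of log units above the top tested concentration; inconclusive = flat fit with 30 to 70% signal loss, or invalid fit; inactive = half-maximal concentration above that set limit.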 This is one part of the list.
Assay: ADP-Glo luciferase signal interference – biochemical, luminescence, cell-free, homogeneous, artefact control for GSK3beta inhibitor project, dose response (AID 434947);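 note: kinase-free counter screen of ADP-Glo detection reagents for GSK3beta hits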
Details: Cell-free ADP-Glo reagents, 5 uM ADP

EC50, inactive:
COC(=O)c1ccc2c(=O)n(CC3CCCO3)c(SCC(=O)Nc3ccccc3Cl)nc2c1 (centres undefined) > 30 µM, CCOC(=O)c1sc(NC(=O)CCN2C(=O)c3cccc([N+](=O)[O-])c3C2=O)c(C(=O)OCC)c1C > 30 µM, Cc1[nH]nc2c1C(c1cccc(O)c1)C1=C(CC(C)(C)CC1=O)N2 (centres undefined) > 30 µM, COCCNc1nc(SC)nc2sc3c(c12)CCN(C)C3 > 30 µM, CCC(Sc1ccc2nnc(-c3ccc(F)cc3)n2n1)C(=O)O (centres undefined) > 30 µM, CCCCn1nc(NC(=O)CC(C)C)c2cc3cc(OC)ccc3nc21 > 30 µM, CC1(C)CC2CC(C)(CN2S(=O)(=O)c2ccc(C(=O)Nc3ccc(Cl)c(S(=O)(=O)N4CCOCC4)c3)cc2)C1 (centres undefined) > 30 µM, CCOC(=O)c1nnn(-c2nonc2N)c1-c1ccc(OCC)cc1 > 30 µM, O=C(Nc1ccc(O)c2c(=O)cc(-c3ccccc3Cl)oc12)c1ccc(Cl)cc1Cl > 30 µM, CC(NCCC(Cc1ccccc1)c1ccco1)c1ccccc1 (centres undefined) > 30 µM, c1ccc(Nc2nc(-c3ccccc3)nc3ccccc23)cc1 > 30 µM, Fc1ccccc1Nc1nc(-c2ccncc2)nc2ccccc12 > 30 µM, O=C(CSc1nnc(-c2ccncc2)o1)Oc1ccccc1 > 30 µM, CC(=O)Nc1cc(-c2ccc(Cl)cc2)[nH]n1 > 30 µM, Cc1nc(Nc2ccccc2)sc1C(=O)c1ccc(F)cc1 > 30 µM, CCC(C)NC(=O)CNC(=S)N(CCCN1CCOCC1)Cc1cccs1 (centres undefined) > 30 µM, Nc1nc(NCC2CCCO2)nc(Nc2cccc(F)c2)c1[N+](=O)[O-] (centres undefined) > 30 µM, COc1ccc(-c2nn(-c3ccccc3)cc2C#N)cc1 > 30 µM, CCOc1ccc2nc(NC(=O)CSc3nc4cccnc4n3C)sc2c1 > 30 µM, Cc1c(NC(=O)C(C)n2cc([N+](=O)[O-])cn2)c(=O)n(-c2ccccc2)n1C (centres undefined) > 30 µM, O=C(N/N=C/c1cc(Br)ccc1O)c1ccccc1Cl > 30 µM, COc1cc(/C=C2/C(=O)NN(c3cccc(Cl)c3)C2=O)cc(Br)c1O > 30 µM, O=C(O)c1cc(-c2ccc(/C=N/N3C(=O)C4C5C=CC(CC5)C4C3=O)o2)ccc1Cl (centres undefined) > 30 µM, CC(C)(C)C1CCc2onc(C(=O)Nc3ccc4c(c3)OCO4)c2C1 (centres undefined) > 30 µM, CCSc1nc(N)c2c3c(sc2n1)CN(C)CC3 > 30 µM, CC(C)(C)N=C1NN=C(c2ccc(Cl)cc2)CS1 > 30 µM, O=C1CCCc2oc3ccc(O)cc3c21 > 30 µM, O=C(O)c1cc(N/N=C/c2ccc(-c3ccc(F)cc3)o2)ccc1Cl > 30 µM, Nc1nonc1-n1nnc(C(=O)N/N=C/c2ccc(OCc3ccccc3)cc2)c1CN1CCCCC1 > 30 µM, Cc1[nH]nc2c1C(c1ccc(O)cc1)C1=C(CC(C)(C)CC1=O)N2 (centres undefined) > 30 µM, O=c1cc(-c2ccc(O)c(O)c2)oc2cc(O)cc(O)c12 > 30 µM, O=C(O)/C=C/C(=O)NCC1CCC(CNC(=O)/C=C/C(=O)O)CC1 (centres undefined) > 30 µM, Nc1nonc1-n1nnc(C(=O)N/N=C/c2ccccc2F)c1CN1CCOCC1 > 30 µM, COc1ccccc1Nc1nc(NCCCN(C)C)nc(N)c1[N+](=O)[O-] > 30 µM, CCNc1nc(SCC(N)=O)nc2sc3c(c12)CCN(C)C3 > 30 µM, CCN1CCN(c2c(C(=O)c3ccc(OC)cc3)cnc3ccccc23)CC1 > 30 µM, O=C(CCS(=O)(=O)c1ccc(Br)cc1)Nc1ccc(Cl)cc1F > 30 µM, CCCCCc1cc(O)c2c(C)cc(=O)oc2c1 > 30 µM, O=C(Nc1ccccc1)C(=O)Nc1ccccn1 > 30 µM, O/N=C/c1cn(-c2ccccc2)nc1-c1ccc2c(c1)OCCO2 > 30 µM, COc1ccc2c(c1)-c1c(sn(-c3ccc(OC)c(OC)c3)c1=S)C(C)(C)N2 > 30 µM, Cn1cc(/C=N/NC(=O)COc2ccccc2[N+](=O)[O-])c2ccccc21 > 30 µM, Cc1nc(NCCCn2ccnc2)c2oc3ccccc3c2n1 > 30 µM, COc1cc(/C=C2\SC(=Nc3ccc(O)cc3)NC2=O)cc(OC)c1O > 30 µM, Cc1ccc(Nc2nc(NCC3CCCO3)nc(N)c2[N+](=O)[O-])cc1 (centres undefined) > 30 µM, CC/C(=N\NC(=O)CSCc1ccccc1Cl)c1ccc2c(c1)OCCO2 > 30 µM, CN1CCN(CCNC(=O)Nc2ccccc2[N+](=O)[O-])CC1 > 30 µM, C(=N\Nc1nccc(-c2cccnc2)n1)/c1ccccc1 > 30 µM, Cc1c(O)ccc(C(=O)CN2CCN(c3ccc(F)cc3)CC2)c1O > 30 µM, Cc1ccnc(NC(=O)CCC(=O)N(CC(=O)NCCc2ccccc2)Cc2cccs2)c1 > 30 µM, Cc1csc(NC(=O)CN2C(=O)c3ccccc3C2=O)c1C(N)=O > 30 µM, NC(=S)N/N=C/c1cn(CCC(=O)O)nc1-c1cccc(Br)c1 > 30 µM, COc1cccc2c1cc1c(=O)n(CC(=O)N3CCCCCC3)nc(C)n12 > 30 µM, Cc1oc2c(CN(C)C)c(O)ccc2c(=O)c1-c1ccc2ccccc2n1 > 30 µM, COc1cc(NC(=S)Nc2ccccn2)c(OC)cc1Cl > 30 µM, O=C(O)CSCC(=O)NCc1c(Cl)cccc1Oc1ccccc1 > 30 µM, Cc1coc2cc3oc(=O)c(CCC(=O)NCCCN4CCCC4=O)c(C)c3cc12 > 30 µM, Clc1nccc(NCc2ccccc2)n1 > 30 µM, O=C(CN1C(=O)CCC1=O)Nc1cccc2c1C(=O)NC2=O > 30 µM

Source: PubChem BioAssay AID434947 (Broad Institute, 2010)
